Laboratory results: PubChem BioAssay AID602196 (INSERM, 2012)
In all, the deposit lists about 23,000 reagents; this is a random part of them. In the full data, 455 (2%) got an active call. 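Active includes both protection and sensitisation; some change values fall well beyond the stated -50 to +50 range.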 Further read-outs or replicates are left out here. Reagent sequences are not shown. Not given: the amount of reagent.

Test: 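Knock-downs that protect lung cancer cells from cisplatin or sensitise them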
Cells: human A549 lung cancer cells
Knock-down reagent: siRNA pair against human genes
Duration: 48 h transfection before cisplatin; time from cisplatin to read-out not stated
Conditions: cisplatin at a dose killing half of control-siRNA cells; exact dose and duration not given
Measurement: 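Cisplatin cell death as a shift from the 50% death seen with control siRNA; siRNAs toxic or growth-blocking alone scored 0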
Scale: two-siRNA summed score (-2 to +2): higher = both siRNAs protect from cisplatin killing; -2 means both sensitise; mean protection from cisplatin (shift in death): higher = protection from cisplatin killing
Hit rule: 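siRNAs harmful alone (LDH or WST-1) get 0; others get +1 for less and -1 for more cisplatin killing; genes are active when the two siRNAs give the same sign, summing to ±2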
Meaning of the calls: active = both siRNAs shift cisplatin killing the same way; inactive = no consistent shift, or siRNA harmful alone

Which result is listed for HRK (harakiri, BCL2 interacting protein) [SID131500760]?
two-siRNA summed score (-2 to +2): -1; mean protection from cisplatin (shift in death) (%): -16.4; call: inactive

With LOC388907 [SID131513045], how do the results read?
two-siRNA summed score (-2 to +2): 0; mean protection from cisplatin (shift in death) (%): 6.1; call: inactive

What did the screen give for SMOC1 (SPARC related modular calcium binding 1) [SID131506139]?
two-siRNA summed score (-2 to +2): 0; mean protection from cisplatin (shift in death) (%): -2; call: inactive

With LOC128939 [SID131505353], how do the results read?
two-siRNA summed score (-2 to +2): 0; mean protection from cisplatin (shift in death) (%): -3.3; call: inactive

With SNRPA1 (small nuclear ribonucleoprotein polypeptide A') [SID131502749], what was measured?
two-siRNA summed score (-2 to +2): -1; mean protection from cisplatin (shift in death) (%): 5.8; call: inactive

For ALG2 (ALG2 alpha-1,3/1,6-mannosyltransferase) [SID131521927], what does the deposit list?
two-siRNA summed score (-2 to +2): 1; mean protection from cisplatin (shift in death) (%): 15.5; call: inactive

With LOC392666 [SID131505923], what does the deposit list?
two-siRNA summed score (-2 to +2): 0; mean protection from cisplatin (shift in death) (%): -2.3; call: inactive

For MCTS1 (MCTS1 re-initiation and release factor) [SID131504814], how do the results read?
two-siRNA summed score (-2 to +2): 0; mean protection from cisplatin (shift in death) (%): -4.4; call: inactive

What did the screen give for PLD4 (phospholipase D family member 4) [SID131507130]?
two-siRNA summed score (-2 to +2): 0; mean protection from cisplatin (shift in death) (%): -0.5; call: inactive

For EVC (EvC ciliary complex subunit 1) [SID131523207], how do the results read?
two-siRNA summed score (-2 to +2): 2; mean protection from cisplatin (shift in death) (%): 26.1; call: active

What is on record for SLC60A2 [SID131513831]?
two-siRNA summed score (-2 to +2): 0; mean protection from cisplatin (shift in death) (%): 7.1; call: inactive

With PCDHB3 (protocadherin beta 3) [SID131509384], what was measured?
two-siRNA summed score (-2 to +2): 0; mean protection from cisplatin (shift in death) (%): 2.1; call: inactive

With TJP1 (tight junction protein 1) [SID131507273], what was measured?
two-siRNA summed score (-2 to +2): 0; mean protection from cisplatin (shift in death) (%): -0.3; call: inactive

Which result is listed for GABBR1 (gamma-aminobutyric acid type B receptor subunit 1) [SID131510913]?
two-siRNA summed score (-2 to +2): 0; mean protection from cisplatin (shift in death) (%): 3.8; call: inactive

For ANKMY2 (ankyrin repeat and MYND domain containing 2) [SID131511404], what does the deposit list?
two-siRNA summed score (-2 to +2): 0; mean protection from cisplatin (shift in death) (%): 4.3; call: inactive

With ACAD10 (acyl-CoA dehydrogenase family member 10) [SID131522659], what was measured?
two-siRNA summed score (-2 to +2): 1; mean protection from cisplatin (shift in death) (%): 21.4; call: inactive

Which result is listed for TMEM170A (transmembrane protein 170A) [SID131516347]?
two-siRNA summed score (-2 to +2): 0; mean protection from cisplatin (shift in death) (%): 10.7; call: inactive

With CLIP3 (CAP-Gly domain containing linker protein 3) [SID131506300], what was measured?
two-siRNA summed score (-2 to +2): 0; mean protection from cisplatin (shift in death) (%): -1.7; call: inactive

Which result is listed for ZNF608 (zinc finger protein 608) [SID131506866]?
two-siRNA summed score (-2 to +2): 0; mean protection from cisplatin (shift in death) (%): -0.9; call: inactive

Targets above whose gene name begins with S or s:
SMOC1 (SPARC related modular calcium binding 1) [SID131506139] | two-siRNA summed score (-2 to +2) = 0; mean protection from cisplatin (shift in death) (%) = -2; call = inactive
SNRPA1 (small nuclear ribonucleoprotein polypeptide A') [SID131502749] | two-siRNA summed score (-2 to +2) = -1; mean protection from cisplatin (shift in death) (%) = 5.8; call = inactive
SLC60A2 [SID131513831] | two-siRNA summed score (-2 to +2) = 0; mean protection from cisplatin (shift in death) (%) = 7.1; call = inactive

Additional entries follow.
For BBX (BBX high mobility group box domain containing) [SID131503662], what does the deposit list?
two-siRNA summed score (-2 to +2): 0; mean protection from cisplatin (shift in death) (%): -8.6; call: inactive

What did the screen give for ITSN1 (intersectin 1) [SID131501571]?
two-siRNA summed score (-2 to +2): -1; mean protection from cisplatin (shift in death) (%): -8.9; call: inactive

For LOC374973 [SID131506855], how do the results read?
two-siRNA summed score (-2 to +2): 0; mean protection from cisplatin (shift in death) (%): -0.9; call: inactive

With CXCR2 (C-X-C motif chemokine receptor 2) [SID131513965], how do the results read?
two-siRNA summed score (-2 to +2): 0; mean protection from cisplatin (shift in death) (%): 7.2; call: inactive

For H2AC7 (H2A clustered histone 7) [SID131504616], how do the results read?
two-siRNA summed score (-2 to +2): 0; mean protection from cisplatin (shift in death) (%): -4.9; call: inactive

Which result is listed for SFTPC (surfactant protein C) [SID131505074]?
two-siRNA summed score (-2 to +2): 0; mean protection from cisplatin (shift in death) (%): -3.9; call: inactive

Which result is listed for CRLF2 (cytokine receptor like factor 2) [SID131509959]?
two-siRNA summed score (-2 to +2): 0; mean protection from cisplatin (shift in death) (%): 2.7; call: inactive

With RRAGC (Ras related GTP binding C) [SID131505523], what was measured?
two-siRNA summed score (-2 to +2): 0; mean protection from cisplatin (shift in death) (%): -3; call: inactive

What did the screen give for TRIM2 (tripartite motif containing 2) [SID131516534]?
two-siRNA summed score (-2 to +2): 0; mean protection from cisplatin (shift in death) (%): 11; call: inactive

How did the screen score TSLIG2 (tRNA splicing ligase complex subunit 2) [SID131511506]?
two-siRNA summed score (-2 to +2): 0; mean protection from cisplatin (shift in death) (%): 4.4; call: inactive

Which result is listed for REG3G (regenerating family member 3 gamma) [SID131509516]?
two-siRNA summed score (-2 to +2): 0; mean protection from cisplatin (shift in death) (%): 2.2; call: inactive

For DNAJB9 (DnaJ heat shock protein family (Hsp40) member B9) [SID131504604], how do the results read?
two-siRNA summed score (-2 to +2): 0; mean protection from cisplatin (shift in death) (%): -5; call: inactive
